In the supplement of paper PMC10849652:
The list shows a part of the results.

Sequences of proteins named here, by UniProt entry; tags and fusion partners are left off. A change or cut given only in a name is not applied to a line headed by its entry.
UniProt P14927: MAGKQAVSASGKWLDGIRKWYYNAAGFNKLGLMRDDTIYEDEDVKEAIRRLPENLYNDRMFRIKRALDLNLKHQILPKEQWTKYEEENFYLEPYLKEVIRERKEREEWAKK
UniProt Q9Y4E8: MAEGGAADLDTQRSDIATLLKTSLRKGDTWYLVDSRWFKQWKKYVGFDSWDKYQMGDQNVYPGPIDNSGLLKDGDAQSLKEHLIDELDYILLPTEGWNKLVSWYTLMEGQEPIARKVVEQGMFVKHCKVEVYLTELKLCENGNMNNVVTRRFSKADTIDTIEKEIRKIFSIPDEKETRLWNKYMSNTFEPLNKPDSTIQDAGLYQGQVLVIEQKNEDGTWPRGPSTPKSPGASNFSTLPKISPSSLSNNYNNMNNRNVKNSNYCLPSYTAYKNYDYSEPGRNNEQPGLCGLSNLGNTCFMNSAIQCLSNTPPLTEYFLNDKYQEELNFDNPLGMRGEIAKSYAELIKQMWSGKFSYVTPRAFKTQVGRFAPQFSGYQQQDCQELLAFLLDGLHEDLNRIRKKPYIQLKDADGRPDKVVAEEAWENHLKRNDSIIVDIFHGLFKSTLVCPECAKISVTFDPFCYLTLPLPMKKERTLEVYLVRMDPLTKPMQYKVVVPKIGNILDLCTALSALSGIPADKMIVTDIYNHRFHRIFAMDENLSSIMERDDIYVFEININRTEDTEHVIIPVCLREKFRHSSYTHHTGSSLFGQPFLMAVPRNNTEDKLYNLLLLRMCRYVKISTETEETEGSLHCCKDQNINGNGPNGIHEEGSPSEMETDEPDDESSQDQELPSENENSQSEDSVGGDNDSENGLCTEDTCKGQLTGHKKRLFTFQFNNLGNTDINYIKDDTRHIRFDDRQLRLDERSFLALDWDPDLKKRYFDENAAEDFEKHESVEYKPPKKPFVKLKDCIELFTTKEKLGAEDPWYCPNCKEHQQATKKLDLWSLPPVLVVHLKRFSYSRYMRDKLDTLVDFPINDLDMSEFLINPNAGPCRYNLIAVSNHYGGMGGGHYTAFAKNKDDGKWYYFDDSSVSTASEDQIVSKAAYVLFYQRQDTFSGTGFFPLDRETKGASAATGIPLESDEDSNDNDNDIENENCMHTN
UniProt O75691: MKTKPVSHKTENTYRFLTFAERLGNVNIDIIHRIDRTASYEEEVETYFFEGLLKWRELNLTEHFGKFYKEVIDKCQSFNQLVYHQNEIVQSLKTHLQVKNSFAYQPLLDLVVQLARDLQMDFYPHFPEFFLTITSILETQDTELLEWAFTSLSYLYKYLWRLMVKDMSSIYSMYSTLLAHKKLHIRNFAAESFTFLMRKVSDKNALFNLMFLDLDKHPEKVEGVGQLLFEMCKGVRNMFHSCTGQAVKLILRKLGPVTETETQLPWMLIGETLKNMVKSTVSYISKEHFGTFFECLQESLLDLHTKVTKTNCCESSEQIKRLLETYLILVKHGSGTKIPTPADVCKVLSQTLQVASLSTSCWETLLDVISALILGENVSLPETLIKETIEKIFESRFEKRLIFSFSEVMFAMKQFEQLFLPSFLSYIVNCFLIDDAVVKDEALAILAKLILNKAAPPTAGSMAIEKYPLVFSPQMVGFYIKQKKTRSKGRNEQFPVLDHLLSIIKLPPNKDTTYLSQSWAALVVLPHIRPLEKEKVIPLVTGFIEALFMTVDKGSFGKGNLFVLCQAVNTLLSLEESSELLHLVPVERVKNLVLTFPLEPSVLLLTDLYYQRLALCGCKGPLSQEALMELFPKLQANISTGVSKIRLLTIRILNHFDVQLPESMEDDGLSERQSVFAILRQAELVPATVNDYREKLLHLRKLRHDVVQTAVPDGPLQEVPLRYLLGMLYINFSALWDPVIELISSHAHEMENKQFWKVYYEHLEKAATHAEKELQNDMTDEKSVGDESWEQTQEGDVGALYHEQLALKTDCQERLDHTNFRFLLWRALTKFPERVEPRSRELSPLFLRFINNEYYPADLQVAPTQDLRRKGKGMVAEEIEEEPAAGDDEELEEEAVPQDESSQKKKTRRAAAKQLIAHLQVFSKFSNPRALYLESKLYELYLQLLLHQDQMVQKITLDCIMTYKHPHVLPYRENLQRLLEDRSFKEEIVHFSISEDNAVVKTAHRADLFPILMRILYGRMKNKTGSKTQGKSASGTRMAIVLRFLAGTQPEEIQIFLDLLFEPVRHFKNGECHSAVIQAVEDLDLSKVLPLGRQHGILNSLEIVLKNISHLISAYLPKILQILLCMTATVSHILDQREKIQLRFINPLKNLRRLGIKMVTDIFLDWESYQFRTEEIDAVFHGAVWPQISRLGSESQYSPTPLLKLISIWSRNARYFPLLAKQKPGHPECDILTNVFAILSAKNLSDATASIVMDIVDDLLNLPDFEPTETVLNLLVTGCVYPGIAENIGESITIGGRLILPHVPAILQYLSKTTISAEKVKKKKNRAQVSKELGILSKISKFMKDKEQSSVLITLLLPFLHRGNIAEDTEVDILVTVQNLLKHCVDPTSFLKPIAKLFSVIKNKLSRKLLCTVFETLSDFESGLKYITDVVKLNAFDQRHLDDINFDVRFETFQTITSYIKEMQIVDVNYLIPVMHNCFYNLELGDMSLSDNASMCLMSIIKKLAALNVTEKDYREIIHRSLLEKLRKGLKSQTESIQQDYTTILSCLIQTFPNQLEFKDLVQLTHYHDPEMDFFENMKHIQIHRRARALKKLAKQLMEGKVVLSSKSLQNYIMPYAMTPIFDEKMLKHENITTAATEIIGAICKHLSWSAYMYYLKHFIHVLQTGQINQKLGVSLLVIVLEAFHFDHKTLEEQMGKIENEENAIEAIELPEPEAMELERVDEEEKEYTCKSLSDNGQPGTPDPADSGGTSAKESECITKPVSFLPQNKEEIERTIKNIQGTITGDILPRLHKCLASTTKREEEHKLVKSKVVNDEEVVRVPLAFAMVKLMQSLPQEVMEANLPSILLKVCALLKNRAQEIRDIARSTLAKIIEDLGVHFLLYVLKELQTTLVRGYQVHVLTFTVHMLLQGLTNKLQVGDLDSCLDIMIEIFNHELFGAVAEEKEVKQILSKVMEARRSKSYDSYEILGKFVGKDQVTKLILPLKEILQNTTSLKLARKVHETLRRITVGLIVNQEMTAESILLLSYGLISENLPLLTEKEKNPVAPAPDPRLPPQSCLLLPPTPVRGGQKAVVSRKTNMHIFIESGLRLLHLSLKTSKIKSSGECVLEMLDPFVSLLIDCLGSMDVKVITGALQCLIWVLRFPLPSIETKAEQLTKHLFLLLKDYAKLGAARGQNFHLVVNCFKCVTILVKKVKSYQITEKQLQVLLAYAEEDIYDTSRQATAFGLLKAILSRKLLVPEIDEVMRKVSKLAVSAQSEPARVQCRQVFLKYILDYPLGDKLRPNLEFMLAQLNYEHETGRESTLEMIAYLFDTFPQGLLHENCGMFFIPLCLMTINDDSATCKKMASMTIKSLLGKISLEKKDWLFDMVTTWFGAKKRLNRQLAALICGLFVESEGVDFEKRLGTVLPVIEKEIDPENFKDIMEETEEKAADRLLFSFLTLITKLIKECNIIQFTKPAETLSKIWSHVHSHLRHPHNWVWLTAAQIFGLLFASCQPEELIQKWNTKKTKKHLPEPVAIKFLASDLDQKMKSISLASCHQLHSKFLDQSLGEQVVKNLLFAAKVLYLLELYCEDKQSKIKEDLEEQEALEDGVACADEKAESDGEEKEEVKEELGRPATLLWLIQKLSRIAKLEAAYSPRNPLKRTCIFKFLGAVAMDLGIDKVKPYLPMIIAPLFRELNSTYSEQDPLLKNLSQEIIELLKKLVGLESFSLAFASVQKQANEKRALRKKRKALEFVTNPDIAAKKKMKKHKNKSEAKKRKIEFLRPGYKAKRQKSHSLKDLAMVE
UniProt Q6BDS2: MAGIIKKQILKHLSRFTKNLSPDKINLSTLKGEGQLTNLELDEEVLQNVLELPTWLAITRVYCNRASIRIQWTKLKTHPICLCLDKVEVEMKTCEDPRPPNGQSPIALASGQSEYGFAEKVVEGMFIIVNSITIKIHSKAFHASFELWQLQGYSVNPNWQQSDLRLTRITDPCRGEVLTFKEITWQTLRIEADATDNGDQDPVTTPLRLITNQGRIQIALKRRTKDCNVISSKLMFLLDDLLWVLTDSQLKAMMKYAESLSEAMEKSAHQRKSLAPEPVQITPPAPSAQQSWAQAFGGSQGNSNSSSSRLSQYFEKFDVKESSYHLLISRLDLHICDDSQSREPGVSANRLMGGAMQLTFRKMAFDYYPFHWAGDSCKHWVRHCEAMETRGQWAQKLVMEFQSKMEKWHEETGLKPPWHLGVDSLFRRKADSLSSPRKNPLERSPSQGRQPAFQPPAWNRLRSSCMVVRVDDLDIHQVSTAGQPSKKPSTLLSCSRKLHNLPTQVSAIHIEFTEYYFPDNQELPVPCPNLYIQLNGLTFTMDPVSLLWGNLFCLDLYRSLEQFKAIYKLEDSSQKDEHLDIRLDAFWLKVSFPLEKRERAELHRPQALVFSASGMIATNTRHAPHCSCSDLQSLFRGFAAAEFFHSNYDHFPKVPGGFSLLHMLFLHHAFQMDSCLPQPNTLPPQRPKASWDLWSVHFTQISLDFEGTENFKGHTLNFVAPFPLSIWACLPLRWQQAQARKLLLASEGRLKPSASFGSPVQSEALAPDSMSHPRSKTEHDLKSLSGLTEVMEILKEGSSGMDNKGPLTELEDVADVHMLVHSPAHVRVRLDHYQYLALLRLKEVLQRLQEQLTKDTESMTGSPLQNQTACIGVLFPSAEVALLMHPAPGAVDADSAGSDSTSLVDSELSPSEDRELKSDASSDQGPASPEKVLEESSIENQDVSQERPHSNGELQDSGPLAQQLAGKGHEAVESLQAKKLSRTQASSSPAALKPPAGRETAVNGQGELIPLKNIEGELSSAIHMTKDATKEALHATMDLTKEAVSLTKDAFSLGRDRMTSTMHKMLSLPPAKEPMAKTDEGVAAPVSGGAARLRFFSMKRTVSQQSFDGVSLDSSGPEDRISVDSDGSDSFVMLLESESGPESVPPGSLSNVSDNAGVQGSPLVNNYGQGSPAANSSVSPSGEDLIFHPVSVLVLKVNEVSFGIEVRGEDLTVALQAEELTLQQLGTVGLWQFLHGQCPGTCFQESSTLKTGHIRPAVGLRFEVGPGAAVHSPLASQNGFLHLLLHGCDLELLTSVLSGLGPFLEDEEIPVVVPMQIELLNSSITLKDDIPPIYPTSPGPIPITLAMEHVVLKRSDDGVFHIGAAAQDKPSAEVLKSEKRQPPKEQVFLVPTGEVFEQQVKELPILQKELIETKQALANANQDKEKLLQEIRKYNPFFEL
UniProt Q92890: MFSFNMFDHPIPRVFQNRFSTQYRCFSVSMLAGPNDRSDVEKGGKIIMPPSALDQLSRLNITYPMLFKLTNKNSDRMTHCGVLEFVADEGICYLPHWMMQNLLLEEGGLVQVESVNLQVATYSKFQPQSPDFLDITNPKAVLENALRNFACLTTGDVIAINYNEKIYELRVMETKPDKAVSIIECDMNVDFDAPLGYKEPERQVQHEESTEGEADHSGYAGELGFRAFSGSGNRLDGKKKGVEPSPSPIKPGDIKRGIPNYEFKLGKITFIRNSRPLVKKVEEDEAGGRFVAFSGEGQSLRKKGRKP
UniProt Q9NZ43: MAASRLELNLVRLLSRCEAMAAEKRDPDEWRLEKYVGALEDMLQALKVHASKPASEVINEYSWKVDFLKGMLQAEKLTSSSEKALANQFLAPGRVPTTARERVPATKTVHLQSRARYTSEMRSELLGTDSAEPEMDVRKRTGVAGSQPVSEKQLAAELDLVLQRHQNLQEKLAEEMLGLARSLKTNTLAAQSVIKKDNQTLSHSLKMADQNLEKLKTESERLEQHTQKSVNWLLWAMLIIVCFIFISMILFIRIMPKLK
UniProt Q8TED0: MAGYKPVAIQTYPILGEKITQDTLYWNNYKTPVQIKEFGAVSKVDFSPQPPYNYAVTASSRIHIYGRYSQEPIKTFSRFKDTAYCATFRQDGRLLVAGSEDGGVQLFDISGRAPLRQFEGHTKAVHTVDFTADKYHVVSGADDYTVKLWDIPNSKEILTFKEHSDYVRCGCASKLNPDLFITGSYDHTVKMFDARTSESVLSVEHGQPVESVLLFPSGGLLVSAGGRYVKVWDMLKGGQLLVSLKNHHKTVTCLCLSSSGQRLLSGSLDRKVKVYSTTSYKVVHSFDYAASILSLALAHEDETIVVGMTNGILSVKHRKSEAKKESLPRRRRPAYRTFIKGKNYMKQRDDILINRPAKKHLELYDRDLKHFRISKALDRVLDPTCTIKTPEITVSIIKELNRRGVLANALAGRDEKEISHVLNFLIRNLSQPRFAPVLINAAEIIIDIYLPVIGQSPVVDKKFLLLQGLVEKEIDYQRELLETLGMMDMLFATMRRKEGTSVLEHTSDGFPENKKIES
UniProt Q9Y3C8: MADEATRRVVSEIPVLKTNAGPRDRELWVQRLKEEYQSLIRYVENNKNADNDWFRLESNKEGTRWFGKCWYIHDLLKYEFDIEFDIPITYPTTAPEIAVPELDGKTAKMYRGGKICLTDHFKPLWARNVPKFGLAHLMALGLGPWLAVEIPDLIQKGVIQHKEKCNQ

How the values were obtained:
Test in all cases: log2 fold change, soluble protein after heating vs DMSO (PISA); higher = thermal stabilisation; K562 lysate, 10 uM; active = over 0.2 and 3.5 SD of the protein, either way, in both replicates (recomputed)
vemurafenib = compound: CCCS(=O)(=O)Nc1ccc(F)c(C(=O)c2c[nH]c3ncc(-c4ccc(Cl)cc4)cc23)c1F [vemurafenib]
In short: (§1)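 K562 pellets were dounce-homogenised in PBS pH 7.4 containing 1 mM MgCl2, and the crude extract, at 1 mg/mL protein, was exposed to 10 μM compound for 30 min. Aliquots were heated for 3 min across 48°C-58°C, pooled, brought to 0.5% NP-40 at 4°C and spun at 21,000xg for 90 min, with the supernatant taken as soluble protein. TMTpro 16plex LC-MS/MS with equalised channel sums quantified that protein. Values are log-two fold changes in thermal stability relative to solvent controls, taken from duplicates.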

[1] = compound: CCCS(=O)(=O)Nc1ccc(F)c(C(=O)c2c[nH]c3ncc(Cl)cc23)c1F
In short: as §1

barasertib = compound: CCN(CCCOc1ccc2c(Nc3cc(CC(=O)Nc4cccc(F)c4)[nH]n3)ncnc2c1)CCOP(=O)(O)O [barasertib]
In short: as §1

[2] = compound: CC[C@@H]1C(=O)N(C)c2cnc(Nc3ccc(C(=O)NC4CCN(C)CC4)cc3OC)nc2N1C1CCCC1
In short: as §1

volasertib = compound: CC[C@@H]1C(=O)N(C)c2cnc(Nc3ccc(C(=O)N[C@H]4CC[C@H](N5CCN(CC6CC6)CC5)CC4)cc3OC)nc2N1C(C)C [volasertib]
In short: as §1

[3] = compound: CCn1c(C(=O)N(C2CC2)C2CC2)cc2c3c(ncn3C)c(Nc3cc(C)n(C)n3)nc21
In short: as §1

[4] = compound: CCn1cc(-c2ccnc3[nH]c(-c4cccc(CN(C)C)c4)cc23)c(-c2ccc(NC(=O)N(C)C)cc2)n1
In short: as §1

[5] = compound: CN1CCC(CNc2ccc3ncc(-c4cccc(OC(F)(F)F)c4)n3n2)CC1
In short: as §1

saracatinib = compound: CN1CCN(CCOc2cc(OC3CCOCC3)c3c(Nc4c(Cl)ccc5c4OCO5)ncnc3c2)CC1 [saracatinib]
In short: as §1

sotrastaurin = compound: CN1CCN(c2nc(C3=C(c4c[nH]c5ccccc45)C(=O)NC3=O)c3ccccc3n2)CC1 [sotrastaurin]
In short: as §1

alvocidib = compound: CN1CC[C@H](c2c(O)cc(O)c3c(=O)cc(-c4ccccc4Cl)oc23)[C@H](O)C1 [alvocidib]
In short: as §1

Tubastatin A = compound: CN1CCc2c(c3ccccc3n2Cc2ccc(C(=O)NO)cc2)C1 [Tubastatin A]
In short: as §1

[6] = compound: CNC(=O)C1=CC=CC=C1NC2=NC(=NC=C2Cl)NC3=C(C=C(C=C3)N4CCOCC4)OC
In short: as §1

defactinib = compound: CNC(=O)c1ccc(Nc2ncc(C(F)(F)F)c(NCc3nccnc3N(C)S(C)(=O)=O)n2)cc1 [defactinib]
In short: as §1

[7] = compound: CNc1nc(-c2ccc3c(N)n[nH]c3c2)cc(N2C[C@@H](C(=O)NC3CCCCC3)CC[C@H]2C)n1
In short: as §1

encorafenib = compound: COC(=O)N[C@@H](C)CNc1nccc(-c2cn(C(C)C)nc2-c2cc(Cl)cc(NS(C)(=O)=O)c2F)n1 [encorafenib]
In short: as §1

[8] = compound: COC(=O)[C@H](CCSC)NC(=O)C1=C(C=C(C=C1)NC[C@H](CS)N)C2=CC=CC=C2
In short: as §1

alisertib = compound: COc1cc(Nc2ncc3c(n2)-c2ccc(Cl)cc2C(c2c(F)cccc2OC)=NC3)ccc1C(=O)O [alisertib]
In short: as §1

[9] = compound: COc1cc2nc(-c3cc(F)ccc3O)nc(N[C@@H]3CNC[C@H]3C(C)(C)O)c2cc1OC
In short: as §1

gefitinib = compound: COc1cc2ncnc(Nc3ccc(F)c(Cl)c3)c2cc1OCCCN1CCOCC1 [gefitinib]
In short: as §1

Row | Target | log2 fold change (vemurafenib) | log2 fold change [1] | log2 fold change (barasertib) | log2 fold change [2] | log2 fold change (volasertib) | log2 fold change [3] | log2 fold change [4] | log2 fold change [5] | log2 fold change (saracatinib) | log2 fold change (sotrastaurin) | log2 fold change (alvocidib) | log2 fold change (Tubastatin A) | log2 fold change [6] | log2 fold change (defactinib) | log2 fold change [7] | log2 fold change (encorafenib) | log2 fold change [8] | log2 fold change (alisertib) | log2 fold change [9] | log2 fold change (gefitinib)
1 | UQCRB (UniProt P14927) | inactive: 0.005 | inactive: 0.001 | inactive: 0.076 | inactive: 0.082 | inactive: 0.048 | inactive: 0.008 | inactive: 0.005 | inactive: 0.016 | inactive: 0.003 | inactive: 0.016 | inactive: 0 | inactive: 0.033 | inactive: 0 | inactive: 0.036 | inactive: 0.046 | inactive: -0.042 | inactive: -0.028 | inactive: -0.009 | inactive: 0.003 | inactive: 0.001
2 | USP15 (UniProt Q9Y4E8) | inactive: 0.012 | inactive: 0.008 | inactive: -0.012 | inactive: -0.046 | inactive: -0.018 | inactive: 0.011 | inactive: 0.029 | inactive: -0.033 | inactive: 0.005 | inactive: 0.007 | inactive: 0.005 | inactive: -0.045 | inactive: -0.017 | inactive: -0.009 | inactive: -0.028 | inactive: -0.019 | inactive: 0.042 | inactive: 0.018 | inactive: -0.015 | inactive: 0.015
3 | UPF3B (UniProt Q9BZI7) | inactive: 0.027 | inactive: 0.01 | inactive: -0.006 | inactive: 0.026 | inactive: 0.004 | inactive: -0.019 | active: -0.231 | inactive: 0.031 | inactive: 0.005 | inactive: -0.019 | inactive: -0.105 | inactive: -0.001 | inactive: 0.023 | inactive: -0.015 | inactive: 0.011 | inactive: 0.011 | inactive: 0.049 | inactive: 0.021 | inactive: -0.021 | inactive: -0.038
4 | VBP1 (UniProt P61758) | inactive: -0.005 | inactive: 0.011 | inactive: -0.033 | inactive: 0.029 | inactive: 0.012 | inactive: 0.034 | inactive: 0.006 | inactive: 0.036 | inactive: -0.019 | inactive: 0.006 | inactive: 0.022 | inactive: 0.009 | inactive: -0.008 | inactive: -0.034 | inactive: -0.02 | inactive: -0.019 | inactive: -0.061 | inactive: -0.013 | inactive: -0.023 | inactive: 0.064
5 | UTP20 (UniProt O75691) | inactive: -0.144 | inactive: 0.028 | inactive: -0.029 | inactive: -0.082 | inactive: -0.026 | inactive: -0.02 | inactive: 0.032 | inactive: -0.096 | inactive: 0.034 | inactive: 0.018 | inactive: -0.045 | inactive: -0.046 | inactive: 0.007 | inactive: 0.053 | inactive: -0.026 | inactive: 0.056 | inactive: 0.059 | inactive: -0.059 | inactive: 0.01 | inactive: -0.096
6 | UHRF1BP1 (UniProt Q6BDS2) | inactive: 0.027 | inactive: 0 | inactive: 0.048 | inactive: 0.105 | inactive: -0.042 | inactive: -0.044 | inactive: -0.079 | inactive: 0.02 | inactive: 0.019 | inactive: -0.014 | inactive: -0.067 | inactive: -0.009 | inactive: 0 | inactive: 0.008 | inactive: 0.018 | inactive: 0.112 | inactive: -0.159 | inactive: 0.019 | inactive: 0.05 | inactive: -0.002
7 | UTP6 (UniProt Q9NYH9) | inactive: -0.024 | inactive: -0.058 | inactive: -0.167 | inactive: -0.018 | inactive: -0.074 | inactive: -0.033 | inactive: -0.089 | inactive: 0.011 | inactive: 0.067 | inactive: 0.041 | inactive: 0.024 | inactive: -0.138 | inactive: 0.01 | inactive: 0.028 | inactive: 0.049 | inactive: -0.005 | inactive: 0.113 | inactive: -0.026 | inactive: 0.048 | inactive: -0.006
8 | UFD1 isoform 1 (UniProt Q92890) | inactive: -0.031 | inactive: -0.001 | inactive: -0.029 | inactive: 0.112 | inactive: 0.03 | inactive: -0.019 | inactive: -0.01 | inactive: 0.025 | inactive: -0.047 | inactive: -0.018 | inactive: -0.025 | inactive: 0.086 | inactive: 0.014 | inactive: 0.019 | inactive: 0.058 | inactive: 0.05 | inactive: -0.034 | inactive: 0.017 | inactive: 0.022 | inactive: 0.054
9 | USE1 (UniProt Q9NZ43) | inactive: -0.071 | inactive: -0.049 | inactive: 0.021 | inactive: 0.036 | inactive: 0.04 | inactive: 0.093 | inactive: 0.002 | inactive: -0.103 | inactive: -0.02 | inactive: 0.017 | inactive: 0.019 | inactive: -0.054 | inactive: -0.002 | inactive: 0.064 | inactive: 0.015 | inactive: 0.067 | inactive: -0.037 | inactive: -0.059 | inactive: 0.039 | inactive: -0.026
10 | UTP15 (UniProt Q8TED0) | inactive: 0.036 | inactive: 0.005 | inactive: 0.039 | inactive: -0.038 | inactive: -0.04 | inactive: -0.003 | inactive: -0.03 | inactive: -0.012 | inactive: 0.052 | inactive: 0.002 | inactive: 0.001 | inactive: 0.008 | inactive: 0.088 | inactive: 0.026 | inactive: -0.027 | inactive: 0.009 | inactive: -0.032 | inactive: -0.023 | inactive: 0.006 | inactive: 0.015
11 | UMPS (UniProt P11172) | inactive: -0.059 | inactive: 0.015 | inactive: 0.015 | inactive: -0.062 | inactive: -0.032 | inactive: 0.034 | inactive: 0.013 | inactive: -0.043 | inactive: 0.009 | inactive: 0.014 | inactive: 0.026 | inactive: -0.009 | inactive: 0.002 | inactive: 0.024 | inactive: -0.021 | inactive: -0.017 | inactive: 0.021 | inactive: -0.014 | inactive: 0.004 | inactive: -0.036
12 | USP4 (UniProt Q13107) | inactive: 0.026 | inactive: 0.048 | inactive: 0.015 | inactive: -0.018 | inactive: -0.042 | inactive: 0.051 | inactive: -0.045 | inactive: -0.052 | inactive: -0.003 | inactive: 0.068 | inactive: 0.031 | inactive: -0.091 | inactive: 0.059 | inactive: 0.013 | inactive: -0.011 | inactive: -0.046 | inactive: 0.076 | inactive: 0.031 | inactive: 0.016 | inactive: -0.023
13 | UFC1 (UniProt Q9Y3C8) | inactive: 0.015 | inactive: -0.007 | inactive: 0.051 | inactive: 0.033 | inactive: 0.015 | inactive: 0.02 | inactive: 0.094 | inactive: -0.021 | inactive: -0.016 | inactive: -0.002 | inactive: 0.008 | inactive: 0.058 | inactive: -0.05 | inactive: -0.057 | inactive: -0.016 | inactive: -0.057 | inactive: 0.033 | inactive: 0.007 | inactive: 0.006 | inactive: -0.005
14 | UTP18 (UniProt Q9Y5J1) | inactive: -0.011 | inactive: 0.067 | inactive: -0.036 | inactive: 0.057 | inactive: -0.069 | inactive: 0.024 | inactive: -0.004 | inactive: -0.042 | inactive: 0.031 | inactive: 0.012 | inactive: 0.009 | inactive: -0.05 | inactive: 0.075 | inactive: -0.086 | inactive: -0.049 | inactive: -0.028 | inactive: 0.006 | inactive: -0.032 | inactive: -0.05 | inactive: -0.046
15 | USP1 (UniProt O94782) | inactive: 0.002 | inactive: -0.005 | inactive: 0.159 | inactive: -0.034 | inactive: -0.034 | inactive: -0.029 | inactive: -0.025 | inactive: 0.031 | inactive: 0.005 | inactive: -0.006 | inactive: 0.024 | inactive: -0.04 | inactive: 0.042 | inactive: 0.007 | inactive: -0.002 | inactive: -0.017 | inactive: 0.013 | inactive: -0.021 | inactive: -0.038 | inactive: -0.002
16 | USP19 isoform 6 (UniProt O94966) | inactive: 0.028 | inactive: 0.028 | inactive: 0.023 | inactive: 0.025 | inactive: -0.028 | inactive: -0.011 | inactive: -0.017 | inactive: 0 | inactive: 0.003 | inactive: -0.006 | inactive: 0.006 | inactive: -0.014 | inactive: -0.005 | inactive: -0.013 | inactive: -0.025 | inactive: 0.02 | inactive: 0.032 | inactive: 0.003 | inactive: 0.021 | inactive: -0.005

Another view of part of the listing above:
Row	Target	log2 fold change (vemurafenib)	log2 fold change [1]	log2 fold change (barasertib)	log2 fold change [2]	log2 fold change (volasertib)	log2 fold change [3]	log2 fold change [4]	log2 fold change [5]	log2 fold change (saracatinib)	log2 fold change (sotrastaurin)	log2 fold change (alvocidib)	log2 fold change (Tubastatin A)	log2 fold change [6]	log2 fold change (defactinib)	log2 fold change [7]	log2 fold change (encorafenib)	log2 fold change [8]	log2 fold change (alisertib)	log2 fold change [9]	log2 fold change (gefitinib)
2	USP15 (UniProt Q9Y4E8)	inactive: 0.012	inactive: 0.008	inactive: -0.012	inactive: -0.046	inactive: -0.018	inactive: 0.011	inactive: 0.029	inactive: -0.033	inactive: 0.005	inactive: 0.007	inactive: 0.005	inactive: -0.045	inactive: -0.017	inactive: -0.009	inactive: -0.028	inactive: -0.019	inactive: 0.042	inactive: 0.018	inactive: -0.015	inactive: 0.015
3	UPF3B (UniProt Q9BZI7)	inactive: 0.027	inactive: 0.01	inactive: -0.006	inactive: 0.026	inactive: 0.004	inactive: -0.019	active: -0.231	inactive: 0.031	inactive: 0.005	inactive: -0.019	inactive: -0.105	inactive: -0.001	inactive: 0.023	inactive: -0.015	inactive: 0.011	inactive: 0.011	inactive: 0.049	inactive: 0.021	inactive: -0.021	inactive: -0.038
